Source: PubChem BioAssay AID1487 (National Center for Advancing Translational Sciences (NCATS), 2009)
This is one part of the list. Further columns of the screen follow, without active or inactive calls. The list favours compounds with an active or inconclusive main result. The note in brackets gives the kind of curve behind each potency; many fits are weak.

Experiment: qHTS Assay for Modulators of Lamin A Splicing
Settings: HeLa LMNA splicing GFP/RFP minigene ratio, 48 h
In short: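 Read-out is the ratio of GFP to DsRed2 object intensity, acquired by 488 nm laser-scanning cytometry on HeLa lamin A-EGFP minigene reporter cells. Compound incubation 48 hrs at 37 °C in Opti-MEM with 2% FBS; DMSO 0.5% final.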

[1] = measured here: GFP splicing reporter channel
[2] = measured here: RFP viability control channel

In the case of `CC(C)(C)n1ncc2c(=O)n(CC(=O)N3CCCCCC3)cnc21`, the AC50 [1] is reported as 0.891 µM [falling, partial curve].

In the case of `CC(OCC(O)CN(C)CCOc1ccccc1)c1ccc(Cl)cc1` (stereo not drawn), the AC50 [2] is reported as 0.0112 µM [falling, full curve, poor fit].

For `CCCCn1c(=O)[nH]c(=O)c2c1nc(-c1ccc(C)c([N+](=O)[O-])c1)n2CC`, the AC50 [2] was 25.1 µM [rising, single point].

With `CCOC(=O)C1CCN(C(=O)c2ccccc2NC(=O)c2ccc(Br)cc2)CC1` the AC50 [1] was 11.2 µM [rising, single point] and the AC50 [2] was 20 µM [rising, single point].

With `N#C/C(=C\c1ccc(-c2cccc([N+](=O)[O-])c2)o1)c1nnc(N2CCOCC2)n1-c1ccccc1` the AC50 [1] was 12.6 µM [falling, partial curve] and the AC50 [2] was 11.2 µM [falling, partial curve].

For `COc1ccc(OCCNC(=O)Nc2cc(F)c(F)cc2Cl)cc1`, the AC50 [2] was 22.4 µM [rising, partial curve, poor fit].

For `Cc1ccc(C(=O)Nc2c(C(=O)NC(C)(C)C)oc3ccccc23)cc1`, the AC50 [1] was 3.55 µM [rising, full curve, poor fit] and the AC50 [2] was 6.31 µM [rising, full curve].

With `O=C1OC(c2cccc([N+](=O)[O-])c2)C2(CCCC2)C(=O)C12CCCCC2` (stereo not drawn) the AC50 [1] was 14.1 µM [rising, single point] and the AC50 [2] was 20 µM [rising, single point].

With `CCOC(=O)c1ccc(NC(=O)CSc2c(C(C)C)cnc3c2c(=O)n(C)c(=O)n3C)cc1` the AC50 [1] was 0.501 µM [rising, full curve, poor fit] and the AC50 [2] was 14.1 µM [rising, single point].

In the case of `CCNS(=O)(=O)c1ccc(CCC(=O)NCCC2=CCCCC2)cc1`, the AC50 [1] is reported as 35.5 µM [rising, single point].

For `Cc1cc(=O)oc2cc(OCCSc3nnc(-c4ccccc4)o3)ccc12`, the AC50 [2] was 0.126 µM [rising, full curve, poor fit].

With `COc1ccc2[nH]c3c(N4CCC(O)(c5cccc(C(F)(F)F)c5)CC4)ncnc3c2c1` the AC50 [1] was 35.5 µM [falling, single point] and the AC50 [2] was 35.5 µM [falling, single point].

For `O=C(c1cnn2c(C(F)F)cc(-c3ccccc3)nc12)N1CCc2ccccc2C1`, the AC50 [2] was 3.98 µM [falling, full curve].

For `COc1ccc(N(C(=O)c2cccc([N+](=O)[O-])c2)S(=O)(=O)c2cccs2)cc1`, the AC50 [1] was 0.891 µM [rising, full curve, poor fit].

With `CC(C(=O)NC1CCCC1)N(Cc1ccco1)C(=O)c1snc(C(=O)NC2CCCC2)c1N` (stereo not drawn) the AC50 [2] was 17.8 µM [rising, single point].

With `Cc1nnc(NC(=O)CSc2nc3c([nH]c4ccccc43)c(=O)n2-c2ccc(Cl)cc2)s1` the AC50 [1] was 17.8 µM [falling, single point] and the AC50 [2] was 25.1 µM [falling, single point].

With `CC(N=c1ccccn1C(=O)Nc1ccc(Cl)cc1)c1ccco1` (stereo not drawn) the AC50 [1] was 3.55 µM [falling, single point] and the AC50 [2] was 3.16 µM [falling, partial curve, poor fit].

In the case of `O=C(Nc1ccccc1)c1ccc(-c2ccc(Br)cc2)o1`, the AC50 [2] is reported as 35.5 µM [rising, single point].

In the case of `Cc1cc(C)c(S(=O)(=O)Nc2cc(SCC(=O)O)c(O)c3ccccc23)cc1C`, the AC50 [1] is reported as 35.5 µM [falling, single point].

For `Cc1cc(C)cc(NC(=O)c2cc(S(=O)(=O)NCCC3=CCCCC3)ccc2F)c1`, the AC50 [1] was 35.5 µM [falling, single point] and the AC50 [2] was 0.0251 µM [falling, full curve, poor fit].

For `Cc1cccc(NC(=S)NCCC(C)C)c1`, the AC50 [1] was 0.178 µM [falling, full curve].

In the case of `CN(CC(=O)Nc1ccccc1N1CCOCC1)S(=O)(=O)c1ccc(Cl)cc1`, the AC50 [2] is reported as 17.8 µM [rising, single point].

For `O=C(Nc1ccccc1C(=O)Nc1ccccn1)c1ccc([N+](=O)[O-])cc1`, the AC50 [1] was 35.5 µM [falling, partial curve] and the AC50 [2] was 35.5 µM [falling, partial curve].

For `O=C1O[C@@H]([C@@H](O)CO)[C@@H](O)[C@H]1O`, the AC50 [1] was 11.2 µM [falling, single point] and the AC50 [2] was 14.1 µM [falling, single point].

In the case of `CC(=O)Nc1ccc2nc(NC(=O)COc3ccccc3Cl)sc2c1`, the AC50 [1] is reported as 1.26 µM [rising, single point] and the AC50 [2] is reported as 1.26 µM [rising, single point].

In the case of `CCOC(=O)c1ccc(NC(=O)C2(c3ccc(OC)cc3)CCCC2)cc1`, the AC50 [2] is reported as 12.6 µM [rising, partial curve].

For `COc1ccc(N2CCN(C(c3cccs3)C(C)NS(=O)(=O)c3ccccc3)CC2)cc1` (stereo not drawn), the AC50 [2] was 14.1 µM [rising, partial curve].

For `O=C(CCNS(=O)(=O)c1cccc2nsnc12)NCc1ccco1`, the AC50 [1] was 35.5 µM [rising, single point].

For `CCc1ccc(NC(=O)C2CCN(c3nc(-c4ccc(OC)cc4)no3)CC2)cc1`, the AC50 [2] was 35.5 µM [rising, single point].

With `CCOc1ccc2nc(N3CCN(C(=O)c4ccc5c(c4)CCCC5)CC3)sc2c1` the AC50 [1] was 6.31 µM [falling, partial curve, poor fit] and the AC50 [2] was 2.51 µM [falling, full curve, poor fit].

With `O=[N+]([O-])c1ccc(/C=N/n2c(CO)nc3ccccc32)s1` the AC50 [2] was 3.98 µM [rising, single point].

For `COCCCNC(=O)CN(CCc1ccccc1)S(=O)(=O)c1ccccc1`, the AC50 [2] was 0.0158 µM [falling, full curve, poor fit].

For `COc1cc(C(=O)NC(=S)Nc2ccc(N3CCCC3)cc2)cc(OC)c1OC`, the AC50 [2] was 20 µM [rising, single point].

For `Cc1ccc(C(=O)NCCc2cccc(Cl)c2)cc1[N+](=O)[O-]`, the AC50 [1] was 5.01 µM [rising, single point] and the AC50 [2] was 15.8 µM [rising, partial curve, poor fit].
